Reference: PubChem BioAssay AID504467 (National Center for Advancing Translational Sciences (NCATS), 2011)
Screen size: about 330,000 compounds; about 7,700 (2.3%) were called active. This list was built around the results that the source calls inconclusive (neither active nor inactive); the mix of calls is not that of the screen. Calls follow the shape of the dose curve; as a rule, active = well fitted inhibition curve with a large enough effect; inconclusive = small, poorly fitted or top-dose-only effect, or effect the other way; inactive = flat fitted curve, though single readings scatter. A potency beside an inconclusive call is a rough fit, not a confirmed value.

Experiment: qHTS screen for small molecules that inhibit ELG1-dependent DNA repair in human embryonic kidney (HEK293T) cells expressing luciferase-tagged ELG1; also: nearly all actives have a fitted effect of over 55% in size
Conditions: HEK293T ELG1-luciferase reporter, luminescence, 16 h, DNA damage induced by 5-fluorouridine; activity change, negative = inhibition: at 46.1 µM (top of the series)
In short: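 DMSO vehicle served as the neutral condition. Each well held 2,000 cells given 5-fluorouridine plus compound; after 16 hr at 37 °C/5% CO2, ONE-Glo was added and luciferase measured 30 min later.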
% is scaled to controls: 0 for no effect and ±100 for the full control effect; potency is read from the fitted curve at half-maximal effect.

Compound	activity change, negative = inhibition	Potency
Cc1ccn(CCNC(=O)C2CCC(=O)N(CCc3ccc(Cl)cc3)C2)n1 (stereo unspecified)	inactive: 5.77%	–
Cc1ccc(Sc2ncccc2C(=O)NCc2cc([N+](=O)[O-])ccc2O)cc1C	inactive: -11.4%	–
COc1ccc(S(=O)(=O)Nc2ccc(F)c(Cl)c2)cc1OC	–	inconclusive: 13 µM [inhibitor, partial curve]
Cc1nc(SCC(=O)Nc2ccc(OCc3ccccc3)cc2)n[nH]1	–	inconclusive: 18.3 µM [activator, partial curve]
Cc1cc(C(=O)CN2C(=O)c3ccccc3S2(=O)=O)c(C)n1-c1ccccc1	–	inconclusive: 32.6 µM [inhibitor, single point]
O=C(CCCSc1nc2ccccc2s1)Nc1nccs1	–	inconclusive: 18.4 µM [inhibitor, single point]
O=C(Nc1ccc(F)cc1)c1cn(-c2ccccc2)nc1-c1ccncc1	–	active: 20.6 µM
Cn1c(SCC(=O)NC2CCCCC2)nnc1-c1cc2cc(Cl)ccc2o1	–	inconclusive: 7.31 µM [activator, partial curve, poor fit]
NS(=O)(=O)c1cccc(NC(=O)Nc2ccc(Cl)cc2)c1	–	inconclusive: 25.9 µM [activator, partial curve]
Cc1ccc(-c2ocnc2C(=O)N2CCN(C(=O)c3cccs3)CC2)cc1	inactive: -15.9%	–
COC(=O)C1CCN(C(=O)COc2ccc(S(=O)(=O)N3CCOCC3)cc2Cl)CC1	inactive: 3.12%	–
Cc1ccccc1-c1nnc(SCC(=O)c2c(N)n(C3CC3)c(=O)[nH]c2=O)o1	–	inconclusive: 4.47 µM [inhibitor, single point]
O=C(Cn1nc(-c2nn(CC(=O)c3ccccc3)c3[n+]2CCCCC3)[n+]2c1CCCCC2)c1ccccc1	inactive: 9.29%	–
O=C(NCC1CCCO1)C(c1ccc(F)cc1)N(Cc1ccc2c(c1)OCO2)C(=O)c1ccc(CN2CCOCC2)o1 (stereo unspecified)	inactive: -9.5%	–
Cc1occc1C(=O)NNC(=O)Nc1ccc(F)cc1F	inactive: -3.19%	–
O=C(Nc1ccccc1)c1ccc(CSc2ccccn2)cc1	–	inconclusive: 4.11 µM [activator, full curve]
CN(CC(=O)Nc1ccc(F)c(F)c1F)C(=O)Cn1cnc2c1c(=O)n(C)c(=O)n2C	inactive: 13%	–
O=C(c1cccc(N2C(=O)C3C4C=CC(C4)C3C2=O)c1)N1CCN(c2ccccc2)CC1 (stereo unspecified)	–	inconclusive: 16.4 µM [inhibitor, partial curve, poor fit]
O=C1c2ccccc2C(=O)N1CCCCSc1nc2ccccc2c(=O)n1CCCN1CCOCC1	–	active: 20.6 µM
CN(c1ccccc1)S(=O)(=O)c1ccc(C(=O)Nc2nccs2)cc1	–	inconclusive: 5.8 µM [inhibitor, full curve]
O=C(Nc1ccccc1)C1=C[C@@H](c2ccc(Br)cc2)C[C@@H](OCCCCO)O1	–	inconclusive: 29.1 µM [activator, single point]
CN(C)CCN(C(=O)C1=COCCO1)c1nc2ccc(Cl)cc2s1	–	inconclusive: 20.6 µM [activator, partial curve]
CCOc1ccc(/C=C/C(O)=C2/C(=O)N(C)C3(C)CC2c2ccccc2O3)cc1OC (stereo unspecified)	–	inconclusive: 29.1 µM [inhibitor, single point]
CCCOC1CCCN(C(=O)c2ccc(OC3CCN(C(=O)CCOC)CC3)cc2)C1 (stereo unspecified)	–	inconclusive: 23.1 µM [activator, partial curve, poor fit]

Compound	activity change, negative = inhibition	Potency
CC(C)C1Cc2c(C#N)c(N)n(C)c(=S)c2CO1 (stereo unspecified)	–	inconclusive: 8.2 µM [activator, partial curve, poor fit]
Cc1cc(OC(C)C(=O)NCCCN2CCCC2=O)c2c(C)c(C)c(=O)oc2c1 (stereo unspecified)	–	inconclusive: 18.3 µM [activator, partial curve, poor fit]
O=C1C2C3C=CC(C3)C2C(=O)N1CNc1ccc(O)cc1 (stereo unspecified)	inactive: -2.27%	–
CNc1nc(C)c(C(=O)OCC(=O)OC)s1	–	inconclusive: 20.6 µM [activator, single point]
Cc1cc(NC(=S)Nc2cccnc2)ccc1Br	inactive: 11.8%	–
O=C(CCN1CCCCC1=O)NC1CCCN(Cc2ccc(Cl)cc2)C1 (stereo unspecified)	–	inconclusive: 29.1 µM [inhibitor, single point]
Cc1ccc(NC(=O)c2ccc(OC(=O)C(C)Oc3ccc(Cl)cc3C)cc2)cc1 (stereo unspecified)	–	inconclusive: 5.8 µM [activator, partial curve]
COc1ccc(C(=O)N/N=C(/C)c2cccc(NC(=O)c3ccncc3)c2)cc1OC	–	inconclusive: 18.3 µM [inhibitor, single point]
Cc1ccccc1CNC(=O)CCn1nc(C)c2c(C)n(-c3ccccc3)nc2c1=O	inactive: -0.166%	–
O=C(NCCCO)C(=O)Nc1cc2c3c(c1)CCN3C(=O)CC2	–	inconclusive: 20.6 µM [activator, partial curve]
Cc1oc2ccc(NS(=O)(=O)c3ccc(F)cc3)cc2c1C(=O)O	inactive: -1.78%	–
CC(=O)C1=C(O)C(=O)N(c2ccccn2)C1c1ccccc1[N+](=O)[O-] (stereo unspecified)	inactive: -1.17%	–
CCOC(=O)CSc1nc2c(c(=O)[nH]1)C(C)(CC)Cc1ccccc1-2 (stereo unspecified)	inactive: -8.72%	–
COc1ccc(CC(=O)Nc2ccc(OC)nc2)cc1	inactive: 10.2%	–
C=CCc1ccccc1OCC(O)CNC(=O)c1ccccc1C(=O)O (stereo unspecified)	inactive: 5.74%	–
COc1ccc(-c2nnc(CSc3nnc(-c4ccncc4)n3C3CCCCC3)o2)cc1OC	–	inconclusive: 32.6 µM [inhibitor, partial curve, poor fit]
CC(C)c1nnc(NC(=O)c2cnccn2)s1	–	inconclusive: 29.1 µM [activator, partial curve, poor fit]
COc1cc(/C(C)=N/NC(=O)C(O)(c2ccccc2)c2ccccc2)ccc1O	–	inconclusive: 20.6 µM [activator, single point]
CCC(=O)Nc1ccc(-c2nc3ccccc3c(=O)o2)cc1	inactive: 1.25%	–
CC(C)C[C@H](NC(=O)c1nc[nH]c1C(=O)NC1CCNCC1)C(=O)OCc1ccccc1	–	inconclusive: 12.6 µM [activator, single point]
CC(C)(C)NC(=O)CCN(/N=C/c1ccc([N+](=O)[O-])o1)C1=NS(=O)(=O)c2ccccc21	–	inconclusive: 18.4 µM [inhibitor, partial curve]
O=C(COc1ccccc1F)NNC(=O)c1cccc(-n2cccc2)c1	inactive: 2.29%	–
Cc1ccc(NC(=O)CSc2nc3c(cc2C#N)C(=O)CCC3)cc1S(=O)(=O)N(C)C	–	inconclusive: 29.1 µM [inhibitor, single point]
CCc1cccc(NC(=O)CCc2c(C)nn(-c3ccc(N4CCCCC4)nn3)c2C)c1	inactive: -19.3%	–

Compound	activity change, negative = inhibition	Potency
CC(=O)ON1C(C)(C)CC(OC(=O)c2ccccc2)CC1(C)C	inactive: 0.371%	–
COc1ccc2c(c1)-c1ccccc1S(=O)(=O)N2C	inactive: -0.525%	–
Cc1ccc(N2C(=O)c3ccccc3NC2(C(=O)O)c2ccccc2)cc1Cl (stereo unspecified)	–	inconclusive: 18.3 µM [activator, partial curve]
NS(=O)(=O)c1ccc(NC(=O)CN2CCc3ccccc3C2)cc1	inactive: -11%	–
Cc1ccc(-c2csc3nc4cc(C(N)=O)ccc4c(=O)n23)cc1	inactive: 15.3%	–
CC(=O)c1cccc(NC(=O)C(C)OC(=O)Cc2c[nH]c3ccccc23)c1 (stereo unspecified)	–	inconclusive: 3.66 µM [inhibitor, single point]
COc1cc(C(=O)Nc2ccc(Br)cc2C(=O)c2cc(OC)c(OC)c(OC)c2)cc(OC)c1OC	–	inconclusive: 0.461 µM [inhibitor, full curve]
COc1cccc(NC(=O)CCNS(=O)(=O)c2cccc3nonc23)c1	inactive: -0.935%	–
CC(C)Oc1cccc(C(=O)N/N=C/c2ccoc2)c1	–	inconclusive: 16.4 µM [activator, partial curve]
COc1cccc(NC(=O)C(C)SCc2ccccc2)c1 (stereo unspecified)	–	inconclusive: 29.1 µM [activator, single point]
Cc1c(-c2ccc(Cl)cc2)oc(=O)c2c(N)n(-c3ccccc3)nc12	–	inconclusive: 18.4 µM [activator, single point]
CCCCn1c(CNC(=O)C23CC4CC(CC(C4)C2)C3)nnc1SC(C)CC (stereo unspecified)	inactive: -4.71%	–
O=C(O)c1ccc(CSc2nnc(COc3ccc(Cl)cc3Cl)o2)cc1	–	inconclusive: 18.4 µM [activator, partial curve]
CC(C)(O)C(=O)N/N=C\c1ccc(OC/C=C/c2ccccc2)cc1	–	inconclusive: 29.1 µM [activator, partial curve, poor fit]
Cc1ccc(CNC(=O)Cn2cnc(S(=O)(=O)N3CCC(C)CC3)c2)o1	inactive: 18.3%	–
CCN(CC)CCC(c1ccc(N(C)C)cc1)c1c(OC)cc(OC)c2ccc(=O)oc12 (stereo unspecified)	–	inconclusive: 25.9 µM [activator, partial curve, poor fit]
COC(=O)c1sc(S(=O)(=O)NCc2cccs2)c(C(=O)OC)c1C	–	active: 14.6 µM
O=C(CN1C(=O)/C(=C\c2cccs2)SC1=S)Nc1cccc(C(=O)O)c1	–	inconclusive: 29.1 µM [inhibitor, single point]
O=C(Nc1nc(-c2ccc(Cl)cc2)cs1)C1CCCO1 (stereo unspecified)	–	inconclusive: 10.3 µM [activator, partial curve]
Cc1cccc2c(=O)c(-c3ccc(Cl)cc3)c(NC(=O)c3ccco3)oc12	–	inconclusive: 16.4 µM [inhibitor, partial curve, poor fit]
CCOC(=O)C1CCN(Cc2cnc(Oc3ccc(C(C)(C)C)cc3)s2)CC1	inactive: 8.91%	–
CCS(=O)(=O)N1CCC(C(=O)NCCN2CCN(Cc3ccccc3)CC2)CC1	inactive: -8.16%	–
COc1ccc(CN(C(=O)Cn2nnc(-c3ccc(C)o3)n2)C(C(=O)NCC2CCCO2)c2ccco2)cc1 (stereo unspecified)	–	inconclusive: 0.326 µM [activator, full curve]

Some of these compounds in order of formula weight, rising:
Compound	activity change, negative = inhibition	Potency
O=C1C2C3C=CC(C3)C2C(=O)N1CNc1ccc(O)cc1 (stereo unspecified)	inactive: -2.27%	–
CCc1cccc(NC(=O)CCc2c(C)nn(-c3ccc(N4CCCCC4)nn3)c2C)c1	inactive: -19.3%	–
CC(C)(C)NC(=O)CCN(/N=C/c1ccc([N+](=O)[O-])o1)C1=NS(=O)(=O)c2ccccc21	–	inconclusive: 18.4 µM [inhibitor, partial curve]
